# Primary screen of a compound library

Chains of the proteins cited; added tags and fusions are not shown. Residues count along the entry.
UniProt Q8IDJ8, 1-583: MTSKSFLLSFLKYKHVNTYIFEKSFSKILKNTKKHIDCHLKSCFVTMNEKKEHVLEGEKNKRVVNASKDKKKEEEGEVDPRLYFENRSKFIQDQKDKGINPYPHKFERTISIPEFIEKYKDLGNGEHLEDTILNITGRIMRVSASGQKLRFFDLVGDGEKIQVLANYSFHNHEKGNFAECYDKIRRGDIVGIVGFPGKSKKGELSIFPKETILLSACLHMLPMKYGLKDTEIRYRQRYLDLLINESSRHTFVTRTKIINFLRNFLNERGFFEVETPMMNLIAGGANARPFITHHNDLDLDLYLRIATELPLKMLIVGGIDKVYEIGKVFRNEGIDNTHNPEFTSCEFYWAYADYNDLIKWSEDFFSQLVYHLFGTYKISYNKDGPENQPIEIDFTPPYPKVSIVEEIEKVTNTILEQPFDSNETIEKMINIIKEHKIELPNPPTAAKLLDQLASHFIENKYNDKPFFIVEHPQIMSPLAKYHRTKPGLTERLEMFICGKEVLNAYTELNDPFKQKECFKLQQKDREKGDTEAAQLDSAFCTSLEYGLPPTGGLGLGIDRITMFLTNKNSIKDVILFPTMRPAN
UniProt Q4DA54, 1-478: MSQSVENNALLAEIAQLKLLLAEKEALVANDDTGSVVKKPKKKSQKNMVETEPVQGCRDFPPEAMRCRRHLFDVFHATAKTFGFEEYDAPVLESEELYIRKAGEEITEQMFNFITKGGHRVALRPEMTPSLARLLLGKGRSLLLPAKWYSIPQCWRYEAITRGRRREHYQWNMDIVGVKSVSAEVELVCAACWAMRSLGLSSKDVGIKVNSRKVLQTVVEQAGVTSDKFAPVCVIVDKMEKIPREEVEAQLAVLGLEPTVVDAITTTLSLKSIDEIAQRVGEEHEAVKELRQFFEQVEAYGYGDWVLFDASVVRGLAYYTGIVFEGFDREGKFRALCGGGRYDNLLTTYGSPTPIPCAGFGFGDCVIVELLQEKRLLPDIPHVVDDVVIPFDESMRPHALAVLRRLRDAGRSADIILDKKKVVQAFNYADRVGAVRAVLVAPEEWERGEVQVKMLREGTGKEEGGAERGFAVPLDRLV

Measurements from “University of Dundee, Small-Polar-MMV Screening Library” (2021), ChEMBL document CHEMBL3988442.

Leishmania in macrophages: 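Cell assay of Leishmania donovani living inside macrophages; the read-out is not stated. Tested at 30 µM. The record gives no direction; compounds that gave an IC50 in retests scored well above the rest, so higher reads as stronger inhibition. About 69,000 compounds were tested under these conditions; 1.5% (about 1,000) showed 50% or more at least once.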
T. brucei: 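Whole-parasite assay of Trypanosoma brucei over 72 hours; the read-out is not stated. Concentration: 30 µM. Higher reads as stronger inhibition (inferred: compounds with an IC50 in retests scored well above the rest). Values scatter widely below zero; nearly all retest evidence comes from the higher of the two concentrations used. Of about 64,000 compounds tested this way, about 940 (1.5%) reached 50% or more in at least one test.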
Toxoplasma: 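Assay of Toxoplasma gondii numbers, read through their beta-galactosidase reporter with a colour substrate. Tested at 10 µM. Higher reads as fewer parasites (inferred from which compounds were picked for retests). About 67,000 compounds were tested under these conditions; 0.38% (about 260) showed 50% or more at least once.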
PfKRS1: 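Enzyme assay of the cytosolic lysyl-tRNA synthetase in 384-well plates, read by luminescence. Target: Lysine-tRNA ligase, Plasmodium falciparum 3D7 (UniProt Q8IDJ8). Compounds at 30 µM. Higher reads as stronger inhibition, judged from the few compounds that gave an IC50. Size under these conditions: about 69,000 compounds, about 49 of them at 50% or above in at least one test.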
TcHisRS: 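Histidine-tRNA ligase, Trypanosoma cruzi CL Brener (UniProt Q4DA54). Enzyme assay of histidyl-tRNA synthetase; the read-out is not stated. Compounds at 30 µM. Direction is inferred from retests: higher values go with stronger inhibition. Of about 69,000 compounds tested this way, about 31 (0.045%) reached 50% or more in at least one test.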

The filed quantity is “Percent Effect” (%).
The record does not define 0% and 100%; most values in the screen are far below 50% and negative numbers occur (in some assays of this library far below -100).
The compounds are a random part of those screened.
Two or more numbers in one place are separate tests of the same structure; such repeats can differ widely.

For CNc1nc(C2CCCCN2C(=O)COC)nc2c1CN(C)CC2 (stereo not drawn) the result was Leishmania in macrophages: 23.95% and 27.98%; T. brucei: 2.322%; Toxoplasma: -7.957%; PfKRS1: 2.505%; TcHisRS: 14.29%. With Cn1cc(CN2CC[C@H]3C[C@@H](c4nc(C5CC5)cs4)O[C@@H]3C2)cn1 the screen gave PfKRS1: 3.595%; TcHisRS: 0.9901%. With [H][C@]12CC[C@](O)(CC1)C(COC)N2C(=O)Nc1ccccc1 (stereo partly drawn) the screen gave Leishmania in macrophages: -4.764%; T. brucei: -30.32%; Toxoplasma: 3.402%. Cc1occc1C(=O)N1CCCS1(=O)=O gave Leishmania in macrophages: 26.42%; T. brucei: -22.8%; Toxoplasma: -2.723%; PfKRS1: 5.812%; TcHisRS: 5.941%. Result for [H][C@@]12C[C@@H](Oc3cccnc3)CN1CCN(C(=O)c1cnccn1)C2 was Leishmania in macrophages: 29.21%; T. brucei: 25.88%; Toxoplasma: 0.0575%. For Cc1cccc(C2CCCN2C(=O)CN(C)S(C)(=O)=O)c1C (stereo not drawn) the result was Leishmania in macrophages: -9.658%; T. brucei: -9.671%; Toxoplasma: -1.766%; PfKRS1: 4.096%; TcHisRS: 8.442%. For COCC1c2nnn(CC3CC3)c2CCN1C(=O)c1cccn1C (stereo not drawn) the result was Leishmania in macrophages: 3.302%; T. brucei: -295.5%; Toxoplasma: -4.657%; PfKRS1: -1.058%; TcHisRS: -3.261%.

For O=c1ccc(-c2cccs2)nn1CN1CCCCCC1 the result was Leishmania in macrophages: 13.2%; T. brucei: 20.57%; Toxoplasma: 5.619%; PfKRS1: -0.3848%; TcHisRS: -3.825%. Result for CC(C)C1CN(C(=O)c2ccc(C(N)=O)cc2)CCS1 (stereo not drawn) was Leishmania in macrophages: 3.949%; T. brucei: -23.61%; Toxoplasma: 18.17%; PfKRS1: -2.014%; TcHisRS: 1.674%. CCn1ccnc1CN(C)c1nc(-c2ccc(Cl)cc2)nc2c1CNC2 gave Leishmania in macrophages: 20.89%; T. brucei: 29.19%; Toxoplasma: -1.126%; PfKRS1: 8.003%; TcHisRS: 1.961%. Result for Cc1nn(C)cc1CN1CCCCCC1c1ccc(Cl)cc1 (stereo not drawn) was Leishmania in macrophages: 36.86%; T. brucei: 4.568%; Toxoplasma: 29.41%; PfKRS1: -22.27%; TcHisRS: 15.58%. Cc1cncc(C2CCCN(CC3CCC3)C2)n1 (stereo not drawn) read Leishmania in macrophages: 20.84% and 10.79%; T. brucei: 7.333%; Toxoplasma: -8.13%; PfKRS1: 3.014%; TcHisRS: 7.692%. Result for [H][C@]12CC[C@]([H])(CN(C(=O)c3ccc4c(c3)OCO4)C1)N(CC=C(C)C)C2 was Leishmania in macrophages: 20.09%; Toxoplasma: -18.46%. Result for Cc1cccc(-c2ccc(C(=O)NCC3CCCO3)c(=O)[nH]2)c1 (stereo not drawn) was Leishmania in macrophages: 5.076%; T. brucei: -4.816%; Toxoplasma: -1.256%; PfKRS1: -0.1702%; TcHisRS: 4.07%.

For OCC1(O)CCCN(Cc2ccc(-c3cc[nH]n3)s2)CC1 (stereo not drawn) the result was Leishmania in macrophages: 29.5%; T. brucei: -101.8%; Toxoplasma: -1.521%; PfKRS1: 6.079%; TcHisRS: 3.279%. Result for OCCc1cn(CC2CCCN(Cc3nccs3)C2)nn1 (stereo not drawn) was Leishmania in macrophages: -19.4%; T. brucei: -5.818%; Toxoplasma: 2.774%; PfKRS1: -2.087%; TcHisRS: 1.02%. Result for O=C(CCN1CCCO1)N1CC[C@@H](CNC(=O)N2CCCC2)[C@H](O)C1 was Leishmania in macrophages: -14.01%; T. brucei: -15.91%; Toxoplasma: 0.5008%; PfKRS1: -4.659%; TcHisRS: 4.762%. Result for O=C(Cn1cc(-c2ccccc2)ncc1=O)Nc1nc(C2CC2)n[nH]1 was Leishmania in macrophages: -18.24%; T. brucei: 6.771%; Toxoplasma: 5.046%; PfKRS1: 8.262%; TcHisRS: 3.636%.

Repeated from the top, 2 entries:

{"smiles": "CNc1nc(C2CCCCN2C(=O)COC)nc2c1CN(C)CC2", "stereo": "stereo not drawn", "Leishmania in macrophages": "23.95 and 27.98", "T. brucei": 2.322, "Toxoplasma": -7.957, "PfKRS1": 2.505, "TcHisRS": 14.29}
{"smiles": "Cn1cc(CN2CC[C@H]3C[C@@H](c4nc(C5CC5)cs4)O[C@@H]3C2)cn1", "PfKRS1": 3.595, "TcHisRS": 0.9901}